# The list shows a part of the results. The data scatter; read single values as rough.
# The chains behind the UniProt entries cited, without tags or fusion partners. Where a name states a change or a piece, a line headed by the entry shows the natural chain unless it says otherwise. Residues count along the entry.
# UniProt Q9Y5S2: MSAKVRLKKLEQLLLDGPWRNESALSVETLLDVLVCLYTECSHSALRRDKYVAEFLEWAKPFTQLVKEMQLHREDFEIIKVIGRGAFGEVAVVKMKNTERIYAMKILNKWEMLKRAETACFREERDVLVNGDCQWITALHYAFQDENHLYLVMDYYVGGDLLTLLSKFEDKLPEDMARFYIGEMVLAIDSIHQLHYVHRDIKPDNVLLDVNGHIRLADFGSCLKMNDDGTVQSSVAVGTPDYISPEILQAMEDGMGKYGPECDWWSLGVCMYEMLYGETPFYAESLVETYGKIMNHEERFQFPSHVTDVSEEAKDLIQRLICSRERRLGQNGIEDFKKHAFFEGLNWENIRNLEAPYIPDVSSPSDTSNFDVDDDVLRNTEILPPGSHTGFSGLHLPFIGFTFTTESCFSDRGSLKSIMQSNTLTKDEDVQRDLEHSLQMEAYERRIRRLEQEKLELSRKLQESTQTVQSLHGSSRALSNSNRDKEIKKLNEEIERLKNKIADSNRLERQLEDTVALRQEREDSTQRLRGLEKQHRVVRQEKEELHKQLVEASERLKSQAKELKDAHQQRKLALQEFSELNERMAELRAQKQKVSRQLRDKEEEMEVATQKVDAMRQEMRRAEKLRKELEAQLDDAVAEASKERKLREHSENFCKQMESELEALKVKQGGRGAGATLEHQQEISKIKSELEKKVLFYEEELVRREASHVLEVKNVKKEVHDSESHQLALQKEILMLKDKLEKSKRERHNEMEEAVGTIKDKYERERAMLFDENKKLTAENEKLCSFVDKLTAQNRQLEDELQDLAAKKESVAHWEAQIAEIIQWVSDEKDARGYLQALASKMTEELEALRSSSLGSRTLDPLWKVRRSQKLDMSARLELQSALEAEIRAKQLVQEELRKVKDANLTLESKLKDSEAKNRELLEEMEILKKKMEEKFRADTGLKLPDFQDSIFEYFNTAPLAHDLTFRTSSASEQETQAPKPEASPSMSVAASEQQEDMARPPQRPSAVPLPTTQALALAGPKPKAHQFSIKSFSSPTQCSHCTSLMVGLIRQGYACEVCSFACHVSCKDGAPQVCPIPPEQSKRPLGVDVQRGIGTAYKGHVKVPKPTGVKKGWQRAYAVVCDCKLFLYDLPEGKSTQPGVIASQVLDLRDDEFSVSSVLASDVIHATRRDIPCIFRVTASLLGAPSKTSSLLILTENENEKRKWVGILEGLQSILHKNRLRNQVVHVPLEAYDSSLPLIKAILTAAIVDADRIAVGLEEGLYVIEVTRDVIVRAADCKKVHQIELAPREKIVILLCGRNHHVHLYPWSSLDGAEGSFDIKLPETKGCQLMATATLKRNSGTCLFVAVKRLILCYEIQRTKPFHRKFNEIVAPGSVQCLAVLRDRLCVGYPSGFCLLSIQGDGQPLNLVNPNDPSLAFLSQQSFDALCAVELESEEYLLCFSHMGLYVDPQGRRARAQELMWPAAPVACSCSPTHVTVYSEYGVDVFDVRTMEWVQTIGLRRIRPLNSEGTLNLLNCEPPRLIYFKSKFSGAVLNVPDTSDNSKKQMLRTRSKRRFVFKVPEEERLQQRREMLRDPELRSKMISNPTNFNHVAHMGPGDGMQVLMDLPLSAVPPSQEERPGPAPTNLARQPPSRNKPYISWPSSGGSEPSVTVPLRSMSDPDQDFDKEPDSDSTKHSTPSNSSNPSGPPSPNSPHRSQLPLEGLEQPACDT
# UniProt Q8TEP8: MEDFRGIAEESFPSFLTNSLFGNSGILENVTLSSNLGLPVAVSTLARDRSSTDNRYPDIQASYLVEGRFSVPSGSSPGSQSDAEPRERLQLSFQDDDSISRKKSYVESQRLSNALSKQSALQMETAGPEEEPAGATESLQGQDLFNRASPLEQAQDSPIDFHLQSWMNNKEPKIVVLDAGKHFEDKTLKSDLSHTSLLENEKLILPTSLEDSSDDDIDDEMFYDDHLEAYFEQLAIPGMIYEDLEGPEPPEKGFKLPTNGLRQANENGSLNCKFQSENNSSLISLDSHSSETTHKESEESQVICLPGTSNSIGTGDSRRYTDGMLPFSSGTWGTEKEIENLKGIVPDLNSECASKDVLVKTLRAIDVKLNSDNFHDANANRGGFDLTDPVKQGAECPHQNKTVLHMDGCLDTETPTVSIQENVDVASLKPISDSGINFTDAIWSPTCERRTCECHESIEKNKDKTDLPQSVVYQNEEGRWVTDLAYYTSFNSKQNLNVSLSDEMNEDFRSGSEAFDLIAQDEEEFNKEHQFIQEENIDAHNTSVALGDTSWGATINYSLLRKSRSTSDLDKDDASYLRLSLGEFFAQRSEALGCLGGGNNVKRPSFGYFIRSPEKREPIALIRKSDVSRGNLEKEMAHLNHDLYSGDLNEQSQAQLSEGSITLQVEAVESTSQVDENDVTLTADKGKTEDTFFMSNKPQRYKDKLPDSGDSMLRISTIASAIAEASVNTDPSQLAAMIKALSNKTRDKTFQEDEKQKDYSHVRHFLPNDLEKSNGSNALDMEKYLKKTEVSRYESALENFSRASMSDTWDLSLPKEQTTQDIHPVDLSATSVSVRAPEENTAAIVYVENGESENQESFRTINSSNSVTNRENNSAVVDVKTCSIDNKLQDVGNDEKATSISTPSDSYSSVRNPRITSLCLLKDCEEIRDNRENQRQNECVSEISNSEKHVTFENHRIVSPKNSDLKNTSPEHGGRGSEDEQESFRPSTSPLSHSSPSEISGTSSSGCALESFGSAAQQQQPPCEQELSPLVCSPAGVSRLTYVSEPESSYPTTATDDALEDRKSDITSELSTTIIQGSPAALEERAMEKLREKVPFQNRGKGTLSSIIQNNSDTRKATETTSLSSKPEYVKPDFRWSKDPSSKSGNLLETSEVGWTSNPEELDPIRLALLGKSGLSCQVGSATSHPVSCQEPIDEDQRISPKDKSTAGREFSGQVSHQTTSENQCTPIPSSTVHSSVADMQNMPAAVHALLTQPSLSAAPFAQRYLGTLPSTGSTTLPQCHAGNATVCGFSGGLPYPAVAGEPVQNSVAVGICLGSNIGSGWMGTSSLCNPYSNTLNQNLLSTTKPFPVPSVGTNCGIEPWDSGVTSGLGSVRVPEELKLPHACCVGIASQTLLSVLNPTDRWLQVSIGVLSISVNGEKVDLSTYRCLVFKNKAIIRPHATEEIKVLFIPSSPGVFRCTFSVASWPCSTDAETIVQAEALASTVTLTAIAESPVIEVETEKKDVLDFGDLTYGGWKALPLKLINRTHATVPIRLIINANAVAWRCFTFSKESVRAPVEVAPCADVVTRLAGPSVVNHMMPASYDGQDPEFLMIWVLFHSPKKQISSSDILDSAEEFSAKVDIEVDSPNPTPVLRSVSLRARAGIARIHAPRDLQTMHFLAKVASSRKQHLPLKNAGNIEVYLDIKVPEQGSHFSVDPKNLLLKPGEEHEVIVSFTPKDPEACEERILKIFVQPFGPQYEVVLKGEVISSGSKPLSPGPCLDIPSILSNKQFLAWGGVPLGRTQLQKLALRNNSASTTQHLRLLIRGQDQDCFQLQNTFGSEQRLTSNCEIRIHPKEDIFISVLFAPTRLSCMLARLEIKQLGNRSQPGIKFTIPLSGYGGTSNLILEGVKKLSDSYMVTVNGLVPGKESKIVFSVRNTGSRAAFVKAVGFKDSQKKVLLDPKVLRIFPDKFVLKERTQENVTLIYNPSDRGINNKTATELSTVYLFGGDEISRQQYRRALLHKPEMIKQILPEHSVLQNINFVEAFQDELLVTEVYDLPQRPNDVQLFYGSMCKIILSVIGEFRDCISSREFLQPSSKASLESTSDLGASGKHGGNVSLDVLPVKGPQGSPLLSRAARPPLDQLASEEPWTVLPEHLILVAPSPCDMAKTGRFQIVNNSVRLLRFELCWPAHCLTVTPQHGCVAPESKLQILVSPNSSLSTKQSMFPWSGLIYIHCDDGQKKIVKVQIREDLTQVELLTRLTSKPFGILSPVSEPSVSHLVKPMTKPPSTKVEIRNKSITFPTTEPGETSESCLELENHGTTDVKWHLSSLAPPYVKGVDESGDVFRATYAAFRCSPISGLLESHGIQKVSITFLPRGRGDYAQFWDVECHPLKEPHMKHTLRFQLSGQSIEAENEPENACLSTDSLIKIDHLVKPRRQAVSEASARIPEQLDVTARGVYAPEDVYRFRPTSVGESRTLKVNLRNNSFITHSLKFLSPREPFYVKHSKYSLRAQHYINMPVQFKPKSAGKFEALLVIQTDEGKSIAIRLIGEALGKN
# UniProt Q5VT06, 2421-2442: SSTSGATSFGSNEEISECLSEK
# UniProt Q96JM3: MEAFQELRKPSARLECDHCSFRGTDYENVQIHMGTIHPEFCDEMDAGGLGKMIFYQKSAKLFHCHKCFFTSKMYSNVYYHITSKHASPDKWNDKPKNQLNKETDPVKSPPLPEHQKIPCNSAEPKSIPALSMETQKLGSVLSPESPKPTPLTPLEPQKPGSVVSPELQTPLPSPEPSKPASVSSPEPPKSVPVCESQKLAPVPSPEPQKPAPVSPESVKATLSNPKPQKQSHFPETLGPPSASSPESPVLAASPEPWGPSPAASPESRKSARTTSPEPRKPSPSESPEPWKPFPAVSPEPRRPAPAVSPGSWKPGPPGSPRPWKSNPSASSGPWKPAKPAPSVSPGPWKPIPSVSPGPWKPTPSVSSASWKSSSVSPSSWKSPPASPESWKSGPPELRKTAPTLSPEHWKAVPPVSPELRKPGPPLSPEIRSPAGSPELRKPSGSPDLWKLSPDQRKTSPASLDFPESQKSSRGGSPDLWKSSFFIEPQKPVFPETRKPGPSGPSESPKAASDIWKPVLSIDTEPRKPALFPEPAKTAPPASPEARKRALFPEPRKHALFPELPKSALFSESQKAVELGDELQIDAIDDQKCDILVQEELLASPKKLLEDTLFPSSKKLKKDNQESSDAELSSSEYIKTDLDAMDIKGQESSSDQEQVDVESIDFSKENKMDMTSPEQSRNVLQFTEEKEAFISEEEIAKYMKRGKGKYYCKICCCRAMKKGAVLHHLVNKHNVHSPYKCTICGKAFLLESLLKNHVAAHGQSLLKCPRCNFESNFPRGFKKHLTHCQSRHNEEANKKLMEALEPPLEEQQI
# UniProt Q01850: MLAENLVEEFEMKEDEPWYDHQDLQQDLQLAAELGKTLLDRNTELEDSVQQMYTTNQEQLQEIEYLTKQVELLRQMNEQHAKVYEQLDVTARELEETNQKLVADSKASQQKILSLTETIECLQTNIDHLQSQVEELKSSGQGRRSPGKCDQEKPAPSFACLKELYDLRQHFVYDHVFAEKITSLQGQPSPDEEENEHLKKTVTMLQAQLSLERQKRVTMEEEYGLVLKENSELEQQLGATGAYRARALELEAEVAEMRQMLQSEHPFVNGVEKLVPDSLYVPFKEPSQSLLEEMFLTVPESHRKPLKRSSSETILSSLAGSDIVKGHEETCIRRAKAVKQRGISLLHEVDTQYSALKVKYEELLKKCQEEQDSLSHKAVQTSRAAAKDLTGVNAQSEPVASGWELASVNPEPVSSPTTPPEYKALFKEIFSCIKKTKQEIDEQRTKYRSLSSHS
# UniProt Q03701: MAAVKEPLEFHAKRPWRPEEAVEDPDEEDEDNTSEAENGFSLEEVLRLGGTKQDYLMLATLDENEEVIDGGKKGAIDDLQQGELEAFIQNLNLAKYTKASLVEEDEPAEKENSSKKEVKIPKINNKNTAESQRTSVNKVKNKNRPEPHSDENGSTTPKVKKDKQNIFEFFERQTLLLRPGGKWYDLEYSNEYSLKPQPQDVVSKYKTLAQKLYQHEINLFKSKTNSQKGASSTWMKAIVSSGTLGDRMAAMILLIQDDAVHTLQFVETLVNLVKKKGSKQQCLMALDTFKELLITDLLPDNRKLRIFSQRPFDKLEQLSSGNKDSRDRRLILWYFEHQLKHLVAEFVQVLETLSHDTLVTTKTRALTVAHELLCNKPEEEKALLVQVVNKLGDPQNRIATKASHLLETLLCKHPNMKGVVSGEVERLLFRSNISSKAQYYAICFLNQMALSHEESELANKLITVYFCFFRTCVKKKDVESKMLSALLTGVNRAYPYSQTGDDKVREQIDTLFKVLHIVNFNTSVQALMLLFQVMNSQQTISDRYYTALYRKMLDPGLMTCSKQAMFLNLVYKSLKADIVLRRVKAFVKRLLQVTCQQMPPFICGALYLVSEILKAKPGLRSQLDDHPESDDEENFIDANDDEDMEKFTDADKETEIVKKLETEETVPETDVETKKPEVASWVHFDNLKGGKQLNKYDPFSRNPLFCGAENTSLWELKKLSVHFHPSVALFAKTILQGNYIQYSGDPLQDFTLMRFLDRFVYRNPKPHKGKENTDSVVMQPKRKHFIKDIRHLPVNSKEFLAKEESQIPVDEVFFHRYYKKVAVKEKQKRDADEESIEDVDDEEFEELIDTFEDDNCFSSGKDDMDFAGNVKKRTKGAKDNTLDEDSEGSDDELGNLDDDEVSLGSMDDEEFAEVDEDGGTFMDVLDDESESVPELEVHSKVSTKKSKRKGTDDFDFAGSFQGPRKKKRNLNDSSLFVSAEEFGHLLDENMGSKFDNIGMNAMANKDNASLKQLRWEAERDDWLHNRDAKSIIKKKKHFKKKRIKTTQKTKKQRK
# Compound: ClCC(=O)N[C@H]1CCCc2ccccc12
# Test: log2 mean competition ratio of IA-DTB cysteine labelling (DMSO/compound) (log2 ratio); higher = stronger cysteine engagement by compound
# Conditions: treatment time: 4 h, cell line lysate: HEK293T
# Experimental: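 IA-DTB competitive cysteine chemoproteomics in HEK293T RIPA lysate. Lysates were treated with compound 29 or 30 at 50 or 200 µM for 4 h, then IA-DTB (500 µM, 1 h), trypsin-digested, NeutrAvidin-enriched and analysed by diaPASEF. Competition ratio = intensity DMSO / intensity compound (n=4 treated, n=64 DMSO); binding: mean log2 CR ≥ 1 and p ≤ 0.05 plus QC filters. Target is the cysteine site.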
Target,log2 mean competition ratio (50 µM),log2 mean competition ratio (200 µM)
CDC42BPB C1174 (UniProt Q9Y5S2),-0.33,0.193
CEP192 C594 (UniProt Q8TEP8),0.164,0.0947
CEP350 C2438 (UniProt Q5VT06),0.265,-0.385
CENPF C621 (UniProt P49454),0.21,0.113
CDYL2 C288,0.324,-0.159
CCDC106 C184,0.0969,0.0901
CENPE C2626 (UniProt Q02224),0.122,0.132
CDK12 C862 (UniProt Q9NYV4),0.448,0.00806
CHD3 C1551 (UniProt Q12873),0.472,-0.6
CDCA2 C188 (UniProt Q69YH5),-0.0587,0.512
CHAMP1 C194 (UniProt Q96JM3),0.0598,-0.0441
CDC42BPA C912 (UniProt Q5VT25),0.178,-0.0753
CDR2 C331 (UniProt Q01850),0.18,-0.0155
CEBPZ C374 (UniProt Q03701),-0.879,-0.226
CDX2 C166,0.452,0.507
CBX8 C142 (UniProt Q9HC52),0.222,0.0931

# Two entries picked at random from those above, as already listed:
Target,log2 mean competition ratio (50 µM),log2 mean competition ratio (200 µM)
CENPF C621 (UniProt P49454),0.21,0.113
CCDC106 C184,0.0969,0.0901

# Source: the supplement of paper PMC11732987, “Enantioselective OTUD7B fragment discovery through chemoproteomics screening and high-throughput optimisation” (Communications Chemistry, 2025)
